# These are yes or no findings as the source states them, for the method shown. Binding seen in cells or lysates may run through a third protein. Some results given as binding are weak or reduced against the parent protein; the word gives no strength. For some assays here: Where a sequence is shown, tags or fusion partners need not be part of it.
# By UniProt entry, the sequences of proteins in these tests, tags left out.
# UniProt P46937: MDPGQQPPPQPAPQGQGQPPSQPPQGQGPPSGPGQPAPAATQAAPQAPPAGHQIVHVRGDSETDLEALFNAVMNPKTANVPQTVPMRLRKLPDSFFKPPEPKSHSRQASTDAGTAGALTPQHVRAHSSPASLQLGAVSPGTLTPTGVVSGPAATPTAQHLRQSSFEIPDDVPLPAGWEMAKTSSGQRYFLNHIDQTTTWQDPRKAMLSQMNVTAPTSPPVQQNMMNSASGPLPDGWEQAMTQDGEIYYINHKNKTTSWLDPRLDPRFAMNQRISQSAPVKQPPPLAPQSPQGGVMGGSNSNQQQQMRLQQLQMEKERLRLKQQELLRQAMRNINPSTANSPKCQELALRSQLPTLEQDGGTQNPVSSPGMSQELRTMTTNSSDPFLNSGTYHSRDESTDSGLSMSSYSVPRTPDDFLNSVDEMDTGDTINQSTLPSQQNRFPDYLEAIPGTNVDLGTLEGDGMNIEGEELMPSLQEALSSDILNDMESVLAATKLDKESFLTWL
# UniProt P46938: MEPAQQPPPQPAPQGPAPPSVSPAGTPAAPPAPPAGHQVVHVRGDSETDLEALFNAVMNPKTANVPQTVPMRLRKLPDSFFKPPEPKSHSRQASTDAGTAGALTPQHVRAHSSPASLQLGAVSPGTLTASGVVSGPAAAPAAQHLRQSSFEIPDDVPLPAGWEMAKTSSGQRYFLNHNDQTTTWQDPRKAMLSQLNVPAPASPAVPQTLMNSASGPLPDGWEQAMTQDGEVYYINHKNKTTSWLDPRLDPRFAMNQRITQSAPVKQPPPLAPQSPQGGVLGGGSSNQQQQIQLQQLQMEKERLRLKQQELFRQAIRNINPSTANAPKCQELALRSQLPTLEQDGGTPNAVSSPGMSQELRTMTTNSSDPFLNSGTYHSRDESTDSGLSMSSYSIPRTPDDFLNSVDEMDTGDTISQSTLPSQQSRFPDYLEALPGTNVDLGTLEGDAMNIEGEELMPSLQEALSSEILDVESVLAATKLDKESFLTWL
# UniProt P35222: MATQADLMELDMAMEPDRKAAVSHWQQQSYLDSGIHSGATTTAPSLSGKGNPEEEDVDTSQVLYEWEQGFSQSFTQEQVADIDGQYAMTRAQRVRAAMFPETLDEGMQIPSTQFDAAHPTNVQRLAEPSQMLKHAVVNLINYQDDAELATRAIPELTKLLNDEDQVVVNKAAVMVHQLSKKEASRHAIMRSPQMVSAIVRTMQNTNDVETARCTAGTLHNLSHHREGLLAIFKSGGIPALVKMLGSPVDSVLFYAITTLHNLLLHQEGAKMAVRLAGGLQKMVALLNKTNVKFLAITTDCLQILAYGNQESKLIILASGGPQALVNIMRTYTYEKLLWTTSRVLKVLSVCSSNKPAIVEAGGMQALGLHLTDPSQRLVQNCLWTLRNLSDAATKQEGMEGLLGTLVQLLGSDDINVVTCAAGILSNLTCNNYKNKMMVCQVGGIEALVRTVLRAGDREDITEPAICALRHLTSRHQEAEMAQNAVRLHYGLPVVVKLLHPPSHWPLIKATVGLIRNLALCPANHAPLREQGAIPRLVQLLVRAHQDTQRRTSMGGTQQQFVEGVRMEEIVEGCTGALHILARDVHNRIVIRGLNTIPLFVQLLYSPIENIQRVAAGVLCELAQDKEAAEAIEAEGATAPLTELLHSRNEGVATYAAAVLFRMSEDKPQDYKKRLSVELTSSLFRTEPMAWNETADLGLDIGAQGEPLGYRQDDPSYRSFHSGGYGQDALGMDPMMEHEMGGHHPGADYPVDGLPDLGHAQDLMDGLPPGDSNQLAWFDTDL
# B1: Nfatc1, endogenous (protein, UniProt O88942 1-717)
# chain: MPNTSFPVPSKFPLGPPAAVCGSGETLRPAPPSGGTMKAAEEEHYSYVSPSVTSTLPLPTAHSALPAACHDLQTSTPGISAVPSANHPPSYGGAVDSGPSGYFLSSGNTRPNGAPTLESPRIEITSYLGLHHGSGQFFHDVEVEDVLPSCKRSPSTATLHLPSLEAYRDPSCLSPASSLSSRSCNSEASSYESNYSYPYASPQTSPWQSPCVSPKTTDPEEGFPRSLGACHLLGSPRHSPSTSPRASITEESWLGARGSRPTSPCNKRKYSLNGRQPSCSPHHSPTPSPHGSPRVSVTEDTWLGNTTQYTSSAIVAAINALTTDSTLDLGDGVPIKSRKTALEHAPSVALKVEPAGEDLGTTPPTSDFPPEEYTFQHLRKGAFCEQYLSVPQASYQWAKPKSLSPTSYMSPSLPALDWQLPSHSGPYELRIEVQPKSHHRAHYETEGSRGAVKASAGGHPIVQLHGYLENEPLTLQLFIGTADDRLLRPHAFYQVHRITGKTVSTTSHEIILSNTKVLEIPLLPENNMRAIIDCAGILKLRNSDIELRKGETDIGRKNTRVRLVFRVHIPQPNGRTLSLQVASNPIECSQRSAQELPLVEKQSTDSYPVIGGKKMVLSGHNFLQDSKVIFVEKAPDGHHVWEMEAKTDRDLCKPNSLVVEIPPFRNQRITSPAQVSFYVCNGKRKRSQYQRFTYLPANGNSVFLTLSSESELRGGFY
# Columns and labels:
# [1] = target: Ppp3ca (calcineurin catalytic subunit), endogenous (mouse (endogenous in primary BMSCs)) (UniProt P63328); assay: co-IP; IP of endogenous Ppp3ca from mouse primary BMSC lysates; IP with IgG as negative control; Western blot for Nfatc1, Yap1 and Ctnnb1; cells treated with Yoda1 or CsA
# [2] = target: T1, NFATc1-Flag (from plasmid pcDNA3.0-NFATc1-Flag) (UniProt O95644); assay: co-IP; IP of HEK293T cell lysates with the indicated expression constructs (NFATc1-Flag, YAP-HA, β-catenin-Myc, two or all three together); cells lysed in RIPA buffer with protease inhibitors; Western blot; cells treated with shaking (FSS), Yoda1 (40 μM, 4 hr), CsA or Gd3+
# T1 sequence: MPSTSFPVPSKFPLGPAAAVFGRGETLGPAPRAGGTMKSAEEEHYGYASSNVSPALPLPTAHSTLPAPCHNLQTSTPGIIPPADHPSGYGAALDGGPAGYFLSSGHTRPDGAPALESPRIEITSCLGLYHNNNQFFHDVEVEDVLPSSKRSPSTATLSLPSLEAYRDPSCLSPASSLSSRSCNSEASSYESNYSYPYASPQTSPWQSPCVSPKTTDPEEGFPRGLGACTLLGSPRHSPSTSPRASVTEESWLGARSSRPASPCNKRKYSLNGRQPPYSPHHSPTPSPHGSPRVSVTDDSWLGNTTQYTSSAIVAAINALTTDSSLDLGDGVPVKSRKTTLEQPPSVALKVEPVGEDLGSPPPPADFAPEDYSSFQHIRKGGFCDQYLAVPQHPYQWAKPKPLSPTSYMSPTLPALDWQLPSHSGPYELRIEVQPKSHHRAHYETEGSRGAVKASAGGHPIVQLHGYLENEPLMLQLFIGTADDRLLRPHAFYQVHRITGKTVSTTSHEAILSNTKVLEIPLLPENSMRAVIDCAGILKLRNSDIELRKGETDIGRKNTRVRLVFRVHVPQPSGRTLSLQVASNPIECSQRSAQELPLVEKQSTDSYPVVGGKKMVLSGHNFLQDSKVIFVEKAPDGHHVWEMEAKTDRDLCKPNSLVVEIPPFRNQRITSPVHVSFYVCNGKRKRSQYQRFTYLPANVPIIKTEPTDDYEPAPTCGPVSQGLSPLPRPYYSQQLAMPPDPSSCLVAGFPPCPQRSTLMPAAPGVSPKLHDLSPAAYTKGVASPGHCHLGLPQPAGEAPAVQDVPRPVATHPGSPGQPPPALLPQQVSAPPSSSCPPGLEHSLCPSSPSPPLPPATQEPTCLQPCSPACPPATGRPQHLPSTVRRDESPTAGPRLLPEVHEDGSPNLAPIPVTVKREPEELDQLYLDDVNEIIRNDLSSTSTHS
Molecule,binding [1],binding [2]
"Ctnnb1 (β-catenin), endogenous (from UniProt Q02248 1-781)",binds,
"YAP-HA (HA-tagged YAP1, from plasmid pcDNA3.0-YAP-HA) (from UniProt P46937 1-504)",,binds
"Yap1, endogenous (from UniProt P46938 1-488)",binds,
β-catenin-Myc (from plasmid pcDNA3.0-β-catenin-Myc) (from UniProt P35222 1-781),,binds
B1,binds,

# Reference: publication PMC7112954
